PubChem BioAssay AID743454, Peter MacCallum Cancer Centre | 2014
Screen: 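Search for knock-downs that restore vorinostat killing in resistant colon cancer cells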 (primary screen). Cell system: human HCT116-VR colon cancer cells, selected for vorinostat resistance. Reagents: siRNA pool against human genes, 40 nM siRNA pool. Timing: vorinostat for 24 h, read-out about 72 h after transfection. Treatment: vorinostat at 2.5 µM final. Measurement: 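Cell viability by CellTiter-Fluor and caspase 3/7 activity by luminescence, each scaled to mock wells per plate, duplicates averaged, then robust z-scored over all plates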. Reading the numbers: viability robust z-score: higher = more viable cells than screen typical; caspase robust z-score: higher = more caspase 3/7 activity than screen typical. Active means: 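Hits are knock-downs in viability class RV1/RV2 or caspase class CA1/CA2, excluding ones that killed cells in the no-drug cell-count arm; hits then retested with single siRNAs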.
Shown is one part, drawn at random, of about 18,000 deposited reagents. Over the whole deposit, 450 (2.5%) are marked active. 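Single biological run; no consistent viability z cut-off exists, so the class columns, not z-scores, define the calls.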

With knock-down of CFI (complement factor I), the record shows viability hit class no change; caspase hit class no change; viability robust z-score -0.62; caspase robust z-score 2.98; inactive.
Depletion of FOXA3 (forkhead box A3) came out at: viability hit class no change; caspase hit class no change; viability robust z-score 1.23; caspase robust z-score -0.25; inactive.
After knock-down of IRAK1BP1 (interleukin 1 receptor associated kinase 1 binding protein 1), the record shows viability hit class no change; caspase hit class no change; viability robust z-score 0.32; caspase robust z-score -0.77; inactive.
After knock-down of CDKL1 (cyclin dependent kinase like 1), the record shows viability hit class no change; caspase hit class no change; viability robust z-score -0.22; caspase robust z-score 0.82; inactive.
After knock-down of SLC60A1, the screen gave viability hit class no change; caspase hit class CA1 (caspase activation); viability robust z-score 1.38; caspase robust z-score 6.13; active.
Against CHD7 (chromodomain helicase DNA binding protein 7), the entry reads viability hit class no change; caspase hit class no change; viability robust z-score 1.37; caspase robust z-score -1.01; inactive.
Knock-down of ST3GAL2 (ST3 beta-galactoside alpha-2,3-sialyltransferase 2) came out at: viability hit class no change; caspase hit class no change; viability robust z-score 0.26; caspase robust z-score 1; inactive.
FANCB (FA complementation group B) showed viability hit class no change; caspase hit class no change; viability robust z-score 0.73; caspase robust z-score -0.6; inactive.

Already shown: an excerpt of the list.
CFI (complement factor I) → viability hit class = no change; caspase hit class = no change; viability robust z-score = -0.62; caspase robust z-score = 2.98; Call = inactive
FOXA3 (forkhead box A3) → viability hit class = no change; caspase hit class = no change; viability robust z-score = 1.23; caspase robust z-score = -0.25; Call = inactive

Next entries follow:
PCBD1 (pterin-4 alpha-carbinolamine dehydratase 1) gave viability hit class no change; caspase hit class no change; viability robust z-score -0.71; caspase robust z-score 1.25; inactive.
With knock-down of ARRDC2 (arrestin domain containing 2), the screen gave viability hit class no change; caspase hit class no change; viability robust z-score -0.53; caspase robust z-score 3.45; inactive.
GALNT16 (polypeptide N-acetylgalactosaminyltransferase 16) gave viability hit class no change; caspase hit class no change; viability robust z-score -0.62; caspase robust z-score 1.29; inactive.
FSD2 (fibronectin type III and SPRY domain containing 2) gave viability hit class no change; caspase hit class no change; viability robust z-score -0.02; caspase robust z-score -0.4; inactive.
After knock-down of RALYL (RALY RNA binding protein like) the results were viability hit class no change; caspase hit class no change; viability robust z-score 1.23; caspase robust z-score 0.27; inactive.
For ZNF418 (zinc finger protein 418) the deposit lists viability hit class no change; caspase hit class no change; viability robust z-score -0.02; caspase robust z-score 0.5; inactive.
After knock-down of PGBD2 (piggyBac transposable element derived 2), the record shows viability hit class no change; caspase hit class no change; viability robust z-score -0.82; caspase robust z-score 1.31; inactive.
For RPS6KA4 (ribosomal protein S6 kinase A4) the deposit lists viability hit class no change; caspase hit class no change; viability robust z-score -0.39; caspase robust z-score 2.18; inactive.
After knock-down of LHX9 (LIM homeobox 9), the screen gave viability hit class no change; caspase hit class no change; viability robust z-score 0.18; caspase robust z-score -0.03; inactive.
With knock-down of CEP126 (centrosomal protein 126), the record shows viability hit class no change; caspase hit class no change; viability robust z-score 0.7; caspase robust z-score -0.74; inactive.
For APEH (acylaminoacyl-peptide hydrolase) the deposit lists viability hit class no change; caspase hit class no change; viability robust z-score 0.8; caspase robust z-score -0.64; inactive.
Against PRG3 (proteoglycan 3, pro eosinophil major basic protein 2), the values are viability hit class no change; caspase hit class no change; viability robust z-score 0.69; caspase robust z-score -0.32; inactive.
After knock-down of SPIN3 (spindlin family member 3) the results were viability hit class no change; caspase hit class no change; viability robust z-score -0.52; caspase robust z-score -0.18; inactive.
